No constants are given. Whether binding was seen depends on the method and setting. In cells and extracts the contact can be indirect. Some binding calls cover weakened binding; strength is not graded here.
What was measured:
[1] = target: γCaMKIIQ285A (mouse (endogenous in dHPC)) (UniProt Q923T9); assay: co-IP; dHPC tissue of wildtype vs. γCaMKIIQ285A mutant mice; western blotting of co-IPs for βCaMKII bound to γCaMKII; levels normalized to inputs (1%); n = 5/genotype
[2] = target: γCaMKII (Camk2g), wildtype (mouse (endogenous in dHPC)) (UniProt Q923T9); assay: as above

By UniProt entry, the sequences of proteins in these tests, tags left out. Where a name states a change or a piece, a line headed by the entry shows the natural chain unless it says otherwise.
UniProt Q923T9: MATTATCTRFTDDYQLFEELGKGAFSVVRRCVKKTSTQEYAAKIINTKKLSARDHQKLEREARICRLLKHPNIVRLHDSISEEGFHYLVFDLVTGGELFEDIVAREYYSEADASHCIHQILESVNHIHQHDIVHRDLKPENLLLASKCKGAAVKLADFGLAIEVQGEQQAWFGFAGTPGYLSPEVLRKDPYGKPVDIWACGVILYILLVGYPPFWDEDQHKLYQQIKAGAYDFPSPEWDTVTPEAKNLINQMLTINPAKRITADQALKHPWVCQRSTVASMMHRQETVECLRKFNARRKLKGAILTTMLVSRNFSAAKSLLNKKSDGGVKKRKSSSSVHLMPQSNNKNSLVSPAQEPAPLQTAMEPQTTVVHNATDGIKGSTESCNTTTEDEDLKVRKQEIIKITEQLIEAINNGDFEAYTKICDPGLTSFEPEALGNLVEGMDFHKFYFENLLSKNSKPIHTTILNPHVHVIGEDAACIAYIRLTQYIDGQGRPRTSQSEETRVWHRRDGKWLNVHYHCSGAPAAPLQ
UniProt P28652: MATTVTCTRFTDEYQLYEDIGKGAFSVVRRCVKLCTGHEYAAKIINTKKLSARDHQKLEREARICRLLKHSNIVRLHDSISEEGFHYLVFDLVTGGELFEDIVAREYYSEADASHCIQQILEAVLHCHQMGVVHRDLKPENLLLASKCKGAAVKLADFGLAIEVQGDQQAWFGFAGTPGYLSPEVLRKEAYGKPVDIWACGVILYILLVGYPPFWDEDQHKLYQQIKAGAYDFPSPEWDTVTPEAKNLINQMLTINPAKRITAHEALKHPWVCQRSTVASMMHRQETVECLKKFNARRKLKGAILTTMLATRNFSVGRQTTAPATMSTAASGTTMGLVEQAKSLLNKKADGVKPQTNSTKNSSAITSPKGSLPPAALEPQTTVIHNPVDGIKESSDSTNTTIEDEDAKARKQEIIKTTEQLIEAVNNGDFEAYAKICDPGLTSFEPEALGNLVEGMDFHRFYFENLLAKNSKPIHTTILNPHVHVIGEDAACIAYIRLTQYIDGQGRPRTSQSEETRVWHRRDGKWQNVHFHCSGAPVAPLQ

binding [1]: binds
binding [2]: binds
Substance: βCaMKII (Camk2b) (from UniProt P28652 1-542)

Reference: article doi:10.1101/2024.09.19.613951
